Measured data: PubChem BioAssay AID504774 (Drosophila RNAi Screening Center, 2011)

Aim: 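Knock-downs that shift viability of MMS-exposed cells relative to untreated ones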 (primary screen)
System: Drosophila Kc167 cells
Knock-down reagent: long dsRNA against Drosophila genes, about 0.25 µg dsRNA per well
Time to read-out: about 6 days: 3 days knock-down, then 3 days with or without MMS
Treatment: methyl methanesulphonate 0.004% (w/v) for 3 days after knock-down
Read-out: 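Viability in wells given MMS, read as ATP luminescence, normalised by quantiles plate by plate and averaged across replicates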
Scale: mean viability with MMS and viability with MMS: higher = more surviving cells after MMS
In all, the deposit lists about 23,000 reagents; shown is an unselected part of those with a known target gene and a result. 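Values are quantile-normalised luminescence on an arbitrary scale; higher means more cells surviving MMS.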 Names joined by + are all predicted targets of the reagent. Reagent sequences are not shown.

gene | dsRNA | mean viability with MMS | viability with MMS, replicate 1 | viability with MMS, replicate 2
Mayo (GeneID 43678) | DRSC14300 | 3.45e6 | 3.89e6 | 3.88e6
CG5001 (GeneID 33308) | DRSC00673 | 3.57e6 | 4.00e6 | 4.11e6
CG12206 (GeneID 31316) | DRSC17828 | 3.43e6 | 3.78e6 | 4.00e6
CG6304 (GeneID 35032) | DRSC02948 | 3.12e6 | 3.47e6 | 3.55e6
CG14963 (GeneID 38383) | DRSC08422 | 3.39e6 | 3.88e6 | 3.82e6
Mst98Ca (GeneID 47854) | DRSC16749 | 3.64e6 | 4.01e6 | 4.21e6
CG5348 (GeneID 36877) | DRSC06933 | 3.54e6 | 3.95e6 | 4.07e6
Dyb (GeneID 36362) | DRSC07208 | 3.62e6 | 4.08e6 | 4.15e6
Dyb (GeneID 36362) | DRSC22862 | 3.28e6 | 3.91e6 | 3.73e6
CG14929 + CG4970 + CG14930 | DRSC02412 | 3.52e6 | 3.98e6 | 4.02e6
CG15909 (GeneID 35572) | DRSC04977 | 3.25e6 | 3.61e6 | 3.63e6
Nepl6 (GeneID 33893) | DRSC03242 | 1.77e6 | 3.90e6 | 4.00e6
CG40551 (retired record) (GeneID 5740872) | DRSC21229 | 3.67e6 | 4.08e6 | 4.17e6
CG34337 (GeneID 5740569) | DRSC18435 | 3.49e6 | 4.01e6 | 3.92e6
CG15306 (GeneID 31961) | DRSC17993 | 3.52e6 | 4.08e6 | 3.90e6
CG15306 (GeneID 31961) | DRSC18240 | 3.52e6 | 3.93e6 | 4.04e6
Hip1 (GeneID 39450) | DRSC09812 | 3.56e6 | 4.16e6 | 3.91e6
CG13390 (GeneID 34154) | DRSC02261 | 3.61e6 | 4.07e6 | 4.12e6
Gad1 (GeneID 38484) | DRSC08661 | 3.48e6 | 3.94e6 | 3.95e6
Tsp42Ef (GeneID 35615) | DRSC06191 | 3.59e6 | 4.08e6 | 4.02e6
CG30345 (GeneID 246553) | DRSC05144 | 3.50e6 | 4.01e6 | 3.93e6
Nup133 (GeneID 42680) | DRSC16150 | 3.31e6 | 3.76e6 | 3.78e6
Grl58a (GeneID 37509) | DRSC04145 | 3.43e6 | 3.88e6 | 3.88e6
CG15376 (retired record) (GeneID 31354) | DRSC18046 | 3.58e6 | 3.98e6 | 4.14e6
Rel (GeneID 41087) | DRSC16819 | 3.56e6 | 4.19e6 | 3.92e6
lbe (GeneID 42542) | DRSC16985 | 3.64e6 | 4.18e6 | 4.06e6
spin (GeneID 45380) | DRSC07176 | 3.65e6 | 4.06e6 | 4.23e6
spin (GeneID 45380) | DRSC22271 | 3.60e6 | 4.02e6 | 4.11e6
kra (GeneID 40680) | DRSC12320 | 3.47e6 | 3.91e6 | 3.95e6
UQCR-14L (GeneID 43369) | DRSC15288 | 3.71e6 | 4.28e6 | 4.10e6
UQCR-14L (GeneID 43369) | DRSC22425 | 3.76e6 | 4.17e6 | 4.21e6
Galphai (GeneID 38765) | DRSC11168 | 3.50e6 | 3.97e6 | 3.96e6
CG11286 (GeneID 40919) | DRSC14293 | 3.56e6 | 4.09e6 | 3.99e6
CG12862 (GeneID 36625) | DRSC06202 | 3.55e6 | 4.15e6 | 3.95e6
CG31278 (GeneID 41282) | DRSC16051 | 3.53e6 | 4.02e6 | 4.00e6
dan (GeneID 43023) | DRSC14406 | 3.30e6 | 3.78e6 | 3.73e6
sm (GeneID 37254) | DRSC05795 | 3.51e6 | 4.00e6 | 3.97e6
sm (GeneID 37254) | DRSC07686 | 3.66e6 | 4.07e6 | 4.23e6
Apc (GeneID 44642) | DRSC14114 | 3.51e6 | 3.99e6 | 3.95e6
CR41501 (GeneID 5740839) | DRSC07785 | 3.52e6 | 4.02e6 | 3.96e6
Pi4KIIIalpha (GeneID 31247) | DRSC18655 | 3.73e6 | 4.44e6 | 3.97e6
ea (GeneID 41858) | DRSC16939 | 3.88e6 | 4.62e6 | 4.10e6
yellow-e2 (GeneID 41652) | DRSC15169 | 3.47e6 | 3.94e6 | 3.93e6
CG15406 (GeneID 33542) | DRSC00420 | 3.64e6 | 4.16e6 | 4.05e6
ninaC (GeneID 34012) | DRSC03579 | 3.51e6 | 3.88e6 | 4.06e6
Ack (GeneID 38489) | DRSC08135 | 3.48e6 | 3.98e6 | 3.91e6
Arl8 (GeneID 40961) | DRSC16334 | 3.61e6 | 4.07e6 | 4.12e6
CG4741 (GeneID 37939) | DRSC04485 | 3.57e6 | 4.10e6 | 4.01e6
tth (GeneID 32318) | DRSC19435 | 3.41e6 | 3.63e6 | 4.20e6
rau (GeneID 33814) | DRSC03125 | 3.61e6 | 4.22e6 | 3.99e6
Acp26Ab (GeneID 33816) | DRSC01856 | 3.66e6 | 4.09e6 | 4.16e6
fun (retired record) (GeneID 5657936) | DRSC12300 | 3.70e6 | 4.18e6 | 4.22e6
CG12278 (GeneID 42486) | DRSC14494 | 3.32e6 | 3.80e6 | 3.78e6
nmd (GeneID 44021) | DRSC02856 | 3.55e6 | 4.16e6 | 3.91e6
Ube4B (GeneID 34699) | DRSC03277 | 3.52e6 | 3.73e6 | 4.25e6
RpL29 (GeneID 37430) | DRSC04650 | 3.58e6 | 4.08e6 | 4.05e6
rdgC (GeneID 40224) | DRSC11387 | 3.75e6 | 4.47e6 | 3.92e6
Unc50 (GeneID 41029) | DRSC16561 | 3.70e6 | 4.22e6 | 4.11e6
plx (GeneID 40704) | DRSC12260 | 3.54e6 | 4.08e6 | 3.97e6
plx (GeneID 40704) | DRSC12385 | 3.73e6 | 3.80e6 | 3.71e6
plx (GeneID 40704) | DRSC22683 | 3.39e6 | 3.90e6 | 3.90e6
CG3909 (GeneID 41226) | DRSC14150 | 3.43e6 | 3.89e6 | 3.94e6
CG8541 (GeneID 38838) | DRSC10989 | 3.52e6 | 3.94e6 | 4.06e6
CG5953 (GeneID 34985) | DRSC01546 | 3.45e6 | 3.94e6 | 3.90e6
CG5953 (GeneID 34985) | DRSC02914 | 2.95e6 | 3.53e6 | 3.59e6
Vsp37A (GeneID 31006) | DRSC18794 | 3.56e6 | 4.03e6 | 4.04e6
Cyp4ae1 (GeneID 31193) | DRSC18455 | 3.62e6 | 4.09e6 | 4.11e6
elg1 (GeneID 39770) | DRSC10229 | 3.47e6 | 3.89e6 | 3.95e6

Not a retest: 4 of the entries above.
gene | dsRNA | mean viability with MMS | viability with MMS, replicate 1 | viability with MMS, replicate 2
CG15406 (GeneID 33542) | DRSC00420 | 3.64e6 | 4.16e6 | 4.05e6
ninaC (GeneID 34012) | DRSC03579 | 3.51e6 | 3.88e6 | 4.06e6
Ack (GeneID 38489) | DRSC08135 | 3.48e6 | 3.98e6 | 3.91e6
Arl8 (GeneID 40961) | DRSC16334 | 3.61e6 | 4.07e6 | 4.12e6
